These are yes or no findings as the source states them, for the method shown. In cells and extracts the contact can be indirect. Some binding calls cover weakened binding; strength is not graded here.

The chains behind the UniProt entries cited, without tags or fusion partners. Residues count along the entry.
UniProt Q99K10, residues 46-843: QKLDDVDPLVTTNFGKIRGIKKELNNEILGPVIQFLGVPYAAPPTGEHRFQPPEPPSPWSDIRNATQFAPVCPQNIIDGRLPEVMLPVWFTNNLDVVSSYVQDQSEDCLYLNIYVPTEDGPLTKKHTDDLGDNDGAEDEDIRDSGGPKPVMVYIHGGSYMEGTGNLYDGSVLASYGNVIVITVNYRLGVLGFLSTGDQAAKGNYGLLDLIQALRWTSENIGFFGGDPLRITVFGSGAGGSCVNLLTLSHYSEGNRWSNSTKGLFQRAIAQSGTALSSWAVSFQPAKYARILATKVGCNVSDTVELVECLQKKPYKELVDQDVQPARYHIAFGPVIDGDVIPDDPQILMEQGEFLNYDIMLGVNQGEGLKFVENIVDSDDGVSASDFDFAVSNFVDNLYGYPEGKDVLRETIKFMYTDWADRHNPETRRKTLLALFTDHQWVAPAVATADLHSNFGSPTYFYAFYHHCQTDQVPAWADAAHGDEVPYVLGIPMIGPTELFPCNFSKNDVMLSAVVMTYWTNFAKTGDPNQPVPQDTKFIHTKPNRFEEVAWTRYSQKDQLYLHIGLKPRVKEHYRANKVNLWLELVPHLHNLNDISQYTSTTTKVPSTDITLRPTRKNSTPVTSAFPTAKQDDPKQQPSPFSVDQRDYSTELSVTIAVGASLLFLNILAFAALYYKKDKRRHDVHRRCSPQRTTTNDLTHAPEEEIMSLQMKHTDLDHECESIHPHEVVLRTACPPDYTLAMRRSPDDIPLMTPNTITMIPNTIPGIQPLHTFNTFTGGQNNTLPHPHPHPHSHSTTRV
UniProt P0DI97, residues 47-468: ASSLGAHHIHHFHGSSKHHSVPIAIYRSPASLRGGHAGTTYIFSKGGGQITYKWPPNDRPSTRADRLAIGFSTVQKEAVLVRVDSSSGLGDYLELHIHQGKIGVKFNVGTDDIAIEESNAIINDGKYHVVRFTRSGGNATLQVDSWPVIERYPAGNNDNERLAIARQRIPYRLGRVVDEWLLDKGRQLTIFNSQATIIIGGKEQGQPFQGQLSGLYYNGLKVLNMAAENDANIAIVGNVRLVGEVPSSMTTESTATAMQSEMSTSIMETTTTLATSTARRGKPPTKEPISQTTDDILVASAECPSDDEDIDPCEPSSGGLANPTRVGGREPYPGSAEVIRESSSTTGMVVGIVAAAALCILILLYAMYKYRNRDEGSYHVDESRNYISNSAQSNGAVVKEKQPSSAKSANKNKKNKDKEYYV

In this test the target is HA-NLGN1AB (UniProt Q99K10). Put plainly: proximity ligation.

With MYC-NRXN1B (from UniProt P0DI97 47-468), the binding result was “binds”.
